According to the supplement of paper PMC10849652:
The other results are listed elsewhere or left out.

Chains of the proteins cited; added tags and fusions are not shown. Lines headed by an entry give the natural chain unless they say otherwise; changes in a name come on top.
UniProt Q9BQ69: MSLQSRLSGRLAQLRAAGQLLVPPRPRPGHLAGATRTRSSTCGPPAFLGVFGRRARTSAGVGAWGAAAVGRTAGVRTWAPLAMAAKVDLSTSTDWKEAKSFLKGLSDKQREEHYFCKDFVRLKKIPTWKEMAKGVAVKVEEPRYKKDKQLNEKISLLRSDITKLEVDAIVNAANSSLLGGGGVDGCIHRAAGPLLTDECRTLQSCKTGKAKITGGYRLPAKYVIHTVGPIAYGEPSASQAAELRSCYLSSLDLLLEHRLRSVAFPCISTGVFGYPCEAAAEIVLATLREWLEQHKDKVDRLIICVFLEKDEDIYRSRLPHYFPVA
UniProt P12980: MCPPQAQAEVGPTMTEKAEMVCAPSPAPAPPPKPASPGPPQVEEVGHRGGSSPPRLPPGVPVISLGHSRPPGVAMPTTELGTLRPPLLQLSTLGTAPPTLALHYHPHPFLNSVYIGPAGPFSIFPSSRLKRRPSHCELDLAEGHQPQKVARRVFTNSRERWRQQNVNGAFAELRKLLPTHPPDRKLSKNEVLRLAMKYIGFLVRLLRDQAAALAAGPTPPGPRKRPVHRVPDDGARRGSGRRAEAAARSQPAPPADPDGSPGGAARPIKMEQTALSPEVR
UniProt Q16706: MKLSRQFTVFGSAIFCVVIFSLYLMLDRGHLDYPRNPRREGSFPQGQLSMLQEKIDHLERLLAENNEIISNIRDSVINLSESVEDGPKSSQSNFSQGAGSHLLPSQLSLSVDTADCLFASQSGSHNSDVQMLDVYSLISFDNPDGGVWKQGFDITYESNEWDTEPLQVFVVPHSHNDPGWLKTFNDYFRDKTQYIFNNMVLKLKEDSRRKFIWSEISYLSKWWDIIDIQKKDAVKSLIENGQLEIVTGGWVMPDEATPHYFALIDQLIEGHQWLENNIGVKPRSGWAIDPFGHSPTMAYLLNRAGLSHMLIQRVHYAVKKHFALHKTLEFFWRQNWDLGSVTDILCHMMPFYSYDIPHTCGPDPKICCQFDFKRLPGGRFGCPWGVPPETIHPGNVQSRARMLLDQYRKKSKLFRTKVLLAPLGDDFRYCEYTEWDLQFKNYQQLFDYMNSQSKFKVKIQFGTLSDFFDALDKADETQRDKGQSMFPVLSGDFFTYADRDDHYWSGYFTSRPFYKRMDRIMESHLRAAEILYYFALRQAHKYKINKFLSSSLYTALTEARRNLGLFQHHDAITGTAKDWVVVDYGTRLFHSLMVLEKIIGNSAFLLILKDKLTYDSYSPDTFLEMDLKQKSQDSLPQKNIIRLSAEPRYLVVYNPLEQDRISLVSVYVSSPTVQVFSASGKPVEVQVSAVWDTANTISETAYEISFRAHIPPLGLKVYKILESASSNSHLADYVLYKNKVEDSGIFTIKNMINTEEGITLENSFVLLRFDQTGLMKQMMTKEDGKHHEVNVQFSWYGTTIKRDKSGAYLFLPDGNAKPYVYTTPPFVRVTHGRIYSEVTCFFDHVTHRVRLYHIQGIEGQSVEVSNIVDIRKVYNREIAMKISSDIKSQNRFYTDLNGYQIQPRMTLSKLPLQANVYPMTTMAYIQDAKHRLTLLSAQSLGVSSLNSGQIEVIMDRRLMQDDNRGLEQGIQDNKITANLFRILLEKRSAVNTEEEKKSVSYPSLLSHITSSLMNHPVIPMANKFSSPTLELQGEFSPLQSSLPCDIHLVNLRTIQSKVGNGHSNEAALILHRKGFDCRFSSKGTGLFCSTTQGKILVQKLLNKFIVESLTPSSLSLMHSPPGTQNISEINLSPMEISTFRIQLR
UniProt Q9HD34: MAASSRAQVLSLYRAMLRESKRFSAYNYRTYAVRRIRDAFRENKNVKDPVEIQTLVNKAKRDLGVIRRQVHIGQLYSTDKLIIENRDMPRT
UniProt Q5U5X0: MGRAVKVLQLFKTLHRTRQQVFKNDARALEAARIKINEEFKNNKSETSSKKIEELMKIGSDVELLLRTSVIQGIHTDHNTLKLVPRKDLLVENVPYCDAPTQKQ
UniProt Q9NQ29: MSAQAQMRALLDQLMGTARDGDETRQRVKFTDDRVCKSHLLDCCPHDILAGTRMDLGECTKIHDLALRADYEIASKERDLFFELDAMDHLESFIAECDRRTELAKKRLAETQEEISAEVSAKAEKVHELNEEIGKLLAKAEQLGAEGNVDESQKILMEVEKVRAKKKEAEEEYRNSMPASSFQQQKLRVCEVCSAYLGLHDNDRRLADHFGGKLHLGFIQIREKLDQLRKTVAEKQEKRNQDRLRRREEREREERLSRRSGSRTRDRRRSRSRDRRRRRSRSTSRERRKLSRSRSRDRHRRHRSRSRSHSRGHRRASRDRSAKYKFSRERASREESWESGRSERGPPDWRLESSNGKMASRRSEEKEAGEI
UniProt Q6UWE0: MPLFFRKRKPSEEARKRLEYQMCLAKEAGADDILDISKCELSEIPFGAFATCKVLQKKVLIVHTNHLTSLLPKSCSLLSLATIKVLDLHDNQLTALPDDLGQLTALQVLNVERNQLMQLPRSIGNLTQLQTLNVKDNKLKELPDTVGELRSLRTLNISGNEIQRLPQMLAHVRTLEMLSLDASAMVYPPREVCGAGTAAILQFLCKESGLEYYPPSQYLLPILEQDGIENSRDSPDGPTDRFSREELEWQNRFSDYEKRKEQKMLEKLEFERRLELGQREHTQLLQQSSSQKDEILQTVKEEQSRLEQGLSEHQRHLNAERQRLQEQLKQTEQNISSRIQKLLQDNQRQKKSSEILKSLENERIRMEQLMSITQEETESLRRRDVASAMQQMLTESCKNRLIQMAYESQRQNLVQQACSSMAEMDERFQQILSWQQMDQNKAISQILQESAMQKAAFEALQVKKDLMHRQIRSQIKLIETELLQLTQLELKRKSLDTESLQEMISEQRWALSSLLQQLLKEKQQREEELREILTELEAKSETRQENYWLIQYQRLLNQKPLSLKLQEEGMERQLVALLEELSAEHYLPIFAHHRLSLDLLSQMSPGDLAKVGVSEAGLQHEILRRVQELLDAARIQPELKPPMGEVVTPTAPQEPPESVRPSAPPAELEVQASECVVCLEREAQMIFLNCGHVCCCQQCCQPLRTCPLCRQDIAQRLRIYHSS
UniProt P62312: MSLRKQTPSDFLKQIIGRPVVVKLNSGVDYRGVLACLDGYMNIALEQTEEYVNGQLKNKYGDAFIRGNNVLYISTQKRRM
UniProt O60476: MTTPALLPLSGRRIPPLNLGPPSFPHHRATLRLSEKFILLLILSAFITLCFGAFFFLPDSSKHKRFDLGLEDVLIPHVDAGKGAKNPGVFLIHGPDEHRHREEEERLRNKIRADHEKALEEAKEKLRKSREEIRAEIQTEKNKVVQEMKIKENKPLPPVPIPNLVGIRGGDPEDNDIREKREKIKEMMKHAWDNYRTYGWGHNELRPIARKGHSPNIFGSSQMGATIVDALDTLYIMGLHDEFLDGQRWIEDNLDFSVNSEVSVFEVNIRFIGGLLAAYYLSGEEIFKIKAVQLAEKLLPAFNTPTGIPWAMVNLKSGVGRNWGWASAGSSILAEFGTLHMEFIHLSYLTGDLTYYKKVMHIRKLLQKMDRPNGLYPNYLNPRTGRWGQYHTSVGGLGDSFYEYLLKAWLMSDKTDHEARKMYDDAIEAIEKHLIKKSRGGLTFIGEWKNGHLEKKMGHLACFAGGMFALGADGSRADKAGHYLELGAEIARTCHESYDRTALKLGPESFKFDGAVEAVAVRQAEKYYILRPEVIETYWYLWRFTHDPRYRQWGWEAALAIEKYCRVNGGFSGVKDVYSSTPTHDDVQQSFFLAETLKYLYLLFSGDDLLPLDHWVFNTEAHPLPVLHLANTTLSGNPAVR
UniProt P46734: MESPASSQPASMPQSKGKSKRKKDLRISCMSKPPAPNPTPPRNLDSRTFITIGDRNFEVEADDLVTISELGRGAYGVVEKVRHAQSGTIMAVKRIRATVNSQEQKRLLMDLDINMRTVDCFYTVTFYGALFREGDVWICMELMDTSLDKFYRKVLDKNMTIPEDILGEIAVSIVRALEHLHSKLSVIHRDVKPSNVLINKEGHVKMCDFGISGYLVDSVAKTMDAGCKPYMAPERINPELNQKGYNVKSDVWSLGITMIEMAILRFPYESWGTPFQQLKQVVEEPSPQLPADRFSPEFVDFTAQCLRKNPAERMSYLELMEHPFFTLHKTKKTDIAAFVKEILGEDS
UniProt Q32MZ4: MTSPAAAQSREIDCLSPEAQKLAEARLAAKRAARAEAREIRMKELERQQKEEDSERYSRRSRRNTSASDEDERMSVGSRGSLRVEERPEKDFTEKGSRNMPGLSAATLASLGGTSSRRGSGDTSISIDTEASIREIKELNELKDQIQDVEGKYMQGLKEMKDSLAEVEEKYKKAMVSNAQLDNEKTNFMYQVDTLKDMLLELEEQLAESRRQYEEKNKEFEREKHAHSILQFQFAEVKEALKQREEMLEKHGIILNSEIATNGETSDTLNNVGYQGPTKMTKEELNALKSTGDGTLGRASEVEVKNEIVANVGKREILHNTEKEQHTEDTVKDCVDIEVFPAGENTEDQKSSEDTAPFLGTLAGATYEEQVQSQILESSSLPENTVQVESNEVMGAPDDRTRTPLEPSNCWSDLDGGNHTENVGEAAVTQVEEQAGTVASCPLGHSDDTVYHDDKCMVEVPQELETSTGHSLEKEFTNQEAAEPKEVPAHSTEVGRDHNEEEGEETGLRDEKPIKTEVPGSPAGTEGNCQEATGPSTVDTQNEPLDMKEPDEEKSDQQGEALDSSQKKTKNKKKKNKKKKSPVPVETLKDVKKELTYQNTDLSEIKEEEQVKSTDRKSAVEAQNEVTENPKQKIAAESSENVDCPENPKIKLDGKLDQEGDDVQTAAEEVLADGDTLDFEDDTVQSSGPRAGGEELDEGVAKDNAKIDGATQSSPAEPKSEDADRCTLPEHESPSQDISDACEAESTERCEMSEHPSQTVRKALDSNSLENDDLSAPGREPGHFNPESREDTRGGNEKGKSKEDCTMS
UniProt P43362: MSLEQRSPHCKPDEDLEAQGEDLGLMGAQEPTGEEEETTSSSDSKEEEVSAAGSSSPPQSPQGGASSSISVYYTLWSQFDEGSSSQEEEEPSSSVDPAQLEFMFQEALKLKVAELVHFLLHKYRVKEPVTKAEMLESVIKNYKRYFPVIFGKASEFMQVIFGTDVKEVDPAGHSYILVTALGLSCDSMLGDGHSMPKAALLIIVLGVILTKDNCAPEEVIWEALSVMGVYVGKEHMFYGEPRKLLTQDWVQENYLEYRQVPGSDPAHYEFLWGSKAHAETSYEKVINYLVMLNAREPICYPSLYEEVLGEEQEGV
UniProt Q9NTJ4: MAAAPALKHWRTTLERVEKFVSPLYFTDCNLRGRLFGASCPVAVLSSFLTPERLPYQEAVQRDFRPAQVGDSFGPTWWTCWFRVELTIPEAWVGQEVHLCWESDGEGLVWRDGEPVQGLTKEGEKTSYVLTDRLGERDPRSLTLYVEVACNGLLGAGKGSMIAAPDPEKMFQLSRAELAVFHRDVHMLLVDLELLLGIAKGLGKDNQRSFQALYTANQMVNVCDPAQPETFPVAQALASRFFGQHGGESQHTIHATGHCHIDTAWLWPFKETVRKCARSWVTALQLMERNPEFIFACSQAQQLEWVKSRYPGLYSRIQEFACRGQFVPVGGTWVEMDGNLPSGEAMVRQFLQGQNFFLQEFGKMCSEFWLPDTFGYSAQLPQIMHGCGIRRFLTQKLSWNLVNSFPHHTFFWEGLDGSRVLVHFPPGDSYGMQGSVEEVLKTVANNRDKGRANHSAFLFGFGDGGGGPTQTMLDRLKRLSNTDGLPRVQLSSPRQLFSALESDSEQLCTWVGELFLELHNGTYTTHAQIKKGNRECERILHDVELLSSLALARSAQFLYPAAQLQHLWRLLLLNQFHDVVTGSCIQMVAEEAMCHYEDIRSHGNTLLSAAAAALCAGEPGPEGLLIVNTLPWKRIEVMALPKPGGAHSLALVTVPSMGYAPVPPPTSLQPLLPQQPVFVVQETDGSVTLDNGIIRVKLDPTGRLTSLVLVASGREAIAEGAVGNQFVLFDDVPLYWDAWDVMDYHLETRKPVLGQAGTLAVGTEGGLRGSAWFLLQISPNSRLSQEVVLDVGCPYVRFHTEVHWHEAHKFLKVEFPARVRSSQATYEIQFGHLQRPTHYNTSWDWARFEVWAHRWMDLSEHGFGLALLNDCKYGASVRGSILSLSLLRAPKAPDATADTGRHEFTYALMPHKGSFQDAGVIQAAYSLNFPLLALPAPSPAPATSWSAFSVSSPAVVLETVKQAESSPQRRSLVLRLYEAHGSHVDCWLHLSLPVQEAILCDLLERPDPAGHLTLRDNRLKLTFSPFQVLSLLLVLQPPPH
UniProt Q9UPY8, whole entry, looked up: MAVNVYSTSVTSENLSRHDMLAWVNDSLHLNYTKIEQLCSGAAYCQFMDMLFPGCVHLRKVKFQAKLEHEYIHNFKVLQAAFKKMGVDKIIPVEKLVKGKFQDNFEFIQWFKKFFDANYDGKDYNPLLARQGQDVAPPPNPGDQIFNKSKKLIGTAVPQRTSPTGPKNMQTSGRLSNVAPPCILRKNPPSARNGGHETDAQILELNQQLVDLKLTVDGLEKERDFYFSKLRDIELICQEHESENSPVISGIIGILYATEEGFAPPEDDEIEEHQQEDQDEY

Compound: C1=CC2=NC=CN=C2C=C1/C=C/3\C(=O)NC(=O)S3
Assay: log2 fold change, soluble protein after heating vs DMSO (PISA); higher = thermal stabilisation; K562 cells, 10 uM, 30 min; active = over 0.2 and 3.5 SD of the protein, either way, in both replicates (recomputed)
How it was run: (§1)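 For each measurement, 10 μM compound was applied for 30 min to K562 cells at 2×10^6 cells/mL. Aliquots were heated for 3 min across 48°C-58°C, pooled, and extracted in PBS with 0.5% NP-40 at 4°C; the supernatant after 21,000xg for 90 min was soluble protein. This was quantified by TMTpro 16plex LC-MS/MS with channel sums equalised, and thermal stability was reported relative to control samples from duplicates, on a log2 fold-change scale.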

log2 fold change, inactive:
MACROD1 (UniProt Q9BQ69) 0.083
LYPLAL1 (UniProt Q5VWZ2) 0.057
MAP1B (UniProt P46821) 0.004
LYL1 (UniProt P12980) 0.042
MACF1 (UniProt Q9UPN3) 0.04
MAN2A1 (UniProt Q16706) 0.027
MARCHF5 (UniProt Q9NX47) 0
LYRM4 (UniProt Q9HD34) 0.002
LYRM7 (UniProt Q5U5X0) -0.059
MAPKAPK5 (UniProt Q8IW41) 0.052
LUC7L (UniProt Q9NQ29) -0.003

Compound: C1=CC=C(C=C1)C2=NC(=C(N2)C3=CC=NC=C3)C4=CC(=C(C=C4)Cl)O
Assay: as above
How it was run: as §1

log2 fold change, inactive:
MAP4 (UniProt E7EVA0) -0.086
MAPK12 (UniProt P53778) 0.073
M6PR (UniProt P20645) -0.004
LRSAM1 (UniProt Q6UWE0) -0.001
LSM6 (UniProt P62312) 0.1
MAN1A2 (UniProt O60476) -0.044
MAP2K3 isoform 3 (UniProt P46734) 0.046
MARCHF6 (UniProt O60337) -0.068
LTBP1 isoform 4 (UniProt Q14766) 0.196
LRRFIP1 (UniProt Q32MZ4) -0.024
MAGEA9 (UniProt P43362) -0.021
MAK16 (UniProt Q9BXY0) -0.02
LYZ (UniProt P61626) -0.009
MAN2C1 isoform 4 (UniProt Q9NTJ4) -0.017
MAP7D1 (UniProt Q3KQU3) -0.041
MAD2L1 (UniProt Q13257) -0.009
MARCKSL1 (UniProt P49006) -0.015
LYPLA2 (UniProt O95372) 0.14
MADD isoform 2 (UniProt Q8WXG6) 0.023
MAPRE3 (UniProt Q9UPY8) -0.05
LSM14A isoform 2 (UniProt Q8ND56) -0.062
MAGEB2 (UniProt O15479) -0.074
MACROD1 (UniProt Q9BQ69) 0.128
LYPLAL1 (UniProt Q5VWZ2) 0.041
MAP1B (UniProt P46821) -0.018
LYL1 (UniProt P12980) 0.158
MACF1 (UniProt Q9UPN3) -0.02
MAN2A1 (UniProt Q16706) -0.011
MARCHF5 (UniProt Q9NX47) -0.041
LYRM4 (UniProt Q9HD34) -0.005
LYRM7 (UniProt Q5U5X0) 0.053
MAPKAPK5 (UniProt Q8IW41) 0.043
LUC7L (UniProt Q9NQ29) -0.105
